Measurements from US11147792B2, “Inhibitors of microbially induced amyloid” (Axial Therapeutics, Inc, priority 2017, dated 2021).
Some entries share one result that the patent states for a list of compounds.

The chains behind the UniProt entries cited, without tags or fusion partners. Residues count along the entry.
UniProt P28307, 23-151: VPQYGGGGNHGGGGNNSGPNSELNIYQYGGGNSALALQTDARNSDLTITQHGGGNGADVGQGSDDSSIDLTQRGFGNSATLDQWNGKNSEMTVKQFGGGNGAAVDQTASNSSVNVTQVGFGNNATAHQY

Biological target: T1, E. coli CsgA (Escherichia coli, UniProt P28307)
T1 construct: made in house; host or cells: E. coli NEB 3016 slyD::kan, pET11d
Assay: In vitro ThioflavinT assay of CsgA aggregation
Type: biochemical
Settings: compounds at 20 μM, CsgA at 20 μM, ThT fluorescence at 18 hours, listed as Carvacrol
Description: In Vitro ThioflavinT Assay to Determine Effects of Compounds on CsgA Aggregation.
To assess the effects of compounds on aggregation of E. coli CsgA, a cell-free assay was performed using purified CsgA and Thioflavin T. In the assay, histidine-tagged CsgA was over-expressed in E. coli NEB 3016 slyD::kan cells harboring a pET11d vector containing csgA with the sequence for 6 histidine residues added to the C-terminus and without the Sec signal (amino acid 1-22) sequence. […] Plates were incubated at 25° C. in a Tecan Nano F200 plate reader with excitation at 438 nm using a 439 nm filter with a bandwidth of 8 nm, and emission at 495 nm with a 490 nm filter with a bandwidth of 10 nm. During the assay, plates were shaken initially for 5 seconds and subsequently for 3 seconds prior to fluorescent readings. Readings were performed every 20 minutes for up to 24 hours. The effect of compounds on CsgA aggregation in the assay was determined with data from 18 hours, following the plateau of the fluorescent signal in the untreated (no compound) control wells containing CsgA. Fluorescence values for each compound with CsgA were first adjusted by subtracting the average fluorescence of the compound in the absence of CsgA. […]

## Cc1ccc(C(C)C)cc1O [carvacrol, 2-methyl-5-(propan-2-yl)phenol]
  Inhibition of Aggregation CsgA (compound activity range): −− ((−−) is less than −10% inhibition)
